Laboratory results reported in paper PMC7948415.

B1: albicin (protein, UniProt A0A1Y9G8D0 27-142)
chain: ANNHIRTVLKLFRTIDLDDSKKSFYLTAAKYGIQTQLREPIIRIVGGYLPSTKLSEACVKNMISEVYEIEGDFYSKFSYACEDHAPYSVECLEDARDDYLTQLVELFKETKKCLRE
B2: SG7.AF (protein, UniProt C0HMB5 1-119)
chain: ARKHVQELLKTFRRIDFDETRKSVYLQSAKFGVQSQLREPLTKKVLNYWDDVKLSKTCLDRMVTKVNDVKETFYAGFSYACESHNQYSVDCLEAAKPSYLTALGEIRGETEKCLTTRLK

Columns and labels:
[1] = target: alternative C3 convertase, C3bBb (human); assay: SEC; C3b, factor B, factor D and albicin mixed about 1:2:1:5, 15 min at room temperature, Superdex 200 10/300; fractions on silver-stained SDS-PAGE; buffer HBS/MgCl2 (methods) or HBS with 5 mM NiCl2; both purified
[2] = target: alternative C3 convertase, C3bBb (human); assay: SPR; Biacore T100; properdin amine-coupled to a CM5 chip (5000 RU); C3b (20 μg/ml), factor B (20 μg/ml) and factor D (2 μg/ml) in HBS/MgCl2 injected at 30 μl/min for 120 s without or with SG7.AF, albicin or anophensin (Fig. 9C: 56.8 nM C3b, 107.5 nM factor B, 41.7 nM factor D, inhibitors 1 μM); dissociation at 1 μM inhibitor fitted to a double exponential decay; both purified

Binder | binding [1] | binding [2]
B1 | binds | binds
B2 |  | binds

These are yes or no findings as the source states them, for the method shown. Binding can be weak; no strength is given.
